Article PMC7346168
No constants are given. Whether binding was seen depends on the method and setting. In cells and extracts the contact can be indirect. A yes stands for co-enrichment or nearness to the bait. Other partners may have been found.

T1: 2-CysPRXA C54S (pseudo-reduced variant) (Arabidopsis) (UniProt Q96291)
T1 sequence: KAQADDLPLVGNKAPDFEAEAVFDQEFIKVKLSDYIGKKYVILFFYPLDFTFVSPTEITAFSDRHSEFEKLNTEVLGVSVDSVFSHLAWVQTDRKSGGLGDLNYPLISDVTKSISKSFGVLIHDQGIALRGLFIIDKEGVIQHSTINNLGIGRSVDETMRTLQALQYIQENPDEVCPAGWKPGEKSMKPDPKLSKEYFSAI

T2: 2-CysPRXA C54D (pseudo-hyperoxidized variant) (Arabidopsis) (UniProt Q96291)
T2 sequence: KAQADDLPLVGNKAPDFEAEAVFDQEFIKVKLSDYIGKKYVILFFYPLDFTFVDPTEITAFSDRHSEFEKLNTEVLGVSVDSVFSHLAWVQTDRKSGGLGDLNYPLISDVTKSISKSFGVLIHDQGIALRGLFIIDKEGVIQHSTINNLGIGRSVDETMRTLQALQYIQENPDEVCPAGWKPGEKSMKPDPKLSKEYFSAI


Each binder was assayed against T1, 2-CysPRXA C54S (pseudo-reduced variant) (Arabidopsis) (assay: affinity purification with mass spectrometry; reducing: his6-tagged 2-CysPRXA variant (3 mg) on Ni-NTA-agarose pretreated with 10 mM DTT; leaf extract (50 mg protein) made with 10 mM DTT; 50 mM HEPES pH 8.0, 1 h, 4 °C; stepwise elution with 1 M NaCl, 10 mM DTT, 250 mM imidazole; hits not found on the column without 2-CysPRX; only the target purified).

binding | Binder
binds | 30S ribosomal protein S6 alpha (protein, UniProt Q8VY91 60-207) DFSGTFFEGGFGSDDDPTSPSGSGVSTALEDKPEPQCPPGLRQYETMAVLRPDMSEDERLGLTQKYEELLVAGGGMYVEVFNRGVIPLAYSIRKKNKAGETNTYLDGIYLLFTYFTKPESIVPLETVLTADDDIIRSSSFKIKKRKYN
binds | Ferredoxin--NADP reductase (AT1G20020) (protein, UniProt Q8W493 58-369) ITTETDTPTPAKKVEKVSKKNEEGVIVNRYRPKEPYTGKCLLNTKITADDAPGETWHMVFSHQGEIPYREGQSVGVIADGIDKNGKPHKVRLYSIASSALGDLGNSETVSLCVKRLVYTNDQGETVKGVCSNFLCDLAPGSDVKLTGPVGKEMLMPKDPNATVIMLATGTGIAPFRSFLWKMFFEKHDDYKFNGLAWLFLGVPTTSSLLYQEEFDKMKAKAPENFRVDYAISREQANDKGEKMYIQTRMAQYAAELWELLKKDNTFVYMCGLKGMEKGIDDIMVSLAANDGIDWFDYKKQLKKAEQWNVEVY
binds | Protein MET1 (protein, UniProt Q94BS2 74-335) AEAGGDGEEEEKYETYEIEVEQPYGLKFRKGRDGGTYIDAILPGGSADKTGKFTVGDRVIATSAVFGTEIWPAAEYGRTMYTIRQRIGPLLMQMEKRNGKAEDTGELTEKEIIRAERNAGYISSRLREIQMQNYLKKKEQKAQREKDLREGLQFSKNGKYEEALERFESVLGSKPTPEEASVASYNVACCYSKLNQVQAGLSALEEALKSGYEDFKRIRSDPDLETLRKSKDFDPLLKQFDESFINESAINAIKSLFGFNKK

What follows are binders tested against T2, 2-CysPRXA C54D (pseudo-hyperoxidized variant) (Arabidopsis) (assay: affinity purification with mass spectrometry; oxidizing: his6-tagged 2-CysPRXA variant (3 mg) on Ni-NTA-agarose pretreated with 1 mM H2O2; leaf extract (50 mg protein) made with 1 mM H2O2; 50 mM HEPES pH 8.0, 1 h, 4 °C; stepwise elution with 1 M NaCl, 10 mM DTT, 250 mM imidazole; hits not found on the column without 2-CysPRX; only the target purified).

binding | Binder
binds | Peroxiredoxin Q (protein, UniProt Q9LU86 68-216) KVNKGQAAPDFTLKDQNGKPVSLKKYKGKPVVLYFYPADETPGCTKQACAFRDSYEKFKKAGAEVIGISGDDSASHKAFASKYKLPYTLLSDEGNKVRKDWGVPGDLFGALPGRQTYVLDKNGVVQLIYNNQFQPEKHIDETLKFLKAA
binds | Phosphofructokinase 5 (protein, UniProt Q8VYN6 53-537) ASEIQHSKTSASSIDLSDPDWKLKYEKDFEQRFSIPHITDVLPDAEAIRSTFCLKMRSPTEDFVGGYPSDEEWHGYINNNDRVLLKVISYSSPTSAGAECLDHDCSWVEQWIHRAGPREKIYFRPEEVKAAIITCGGLCPGLNDVIRHIVITLEIYGVKNIVGIPFGYRGFSDKDLTEMPLSRKVVQNIHLSGGSLLGVSRGGPSVSEIVDSMEERGINMLFVLGGNGTHAGANAIHNECRKRKIKVAVVGVPKTIDNDILHMDKTFGFDTAVEEAQRAINSAYIEAHSAYHGIGVVKLMGRNSGFIAMQASLASGQVDICLIPEVPFNLHGPNGVLKHLKYLIETKGSAVICVAEGAGQNFLEKTNAKDASGNAVLGDFGVYIQQETKKYFKEISTPIDVKYIDPTYMIRAVRANASDGILCTVLGQNAVHGAFAGYSGITVGIINTHYAYLPITEVIAYPKSVDPNSRMWHRCLTSTGQPDFI
binds | Plastocyanin major isoform (protein, UniProt P42699 69-167) IEVLLGGGDGSLAFIPNDFSIAKGEKIVFKNNAGYPHNVVFDEDEIPSGVDVAKISMDEQDLLNGAGETYEVALTEPGTYSFYCAPHQGAGMVGKVTVN
binds | Plastidial pyruvate kinase 2 (protein, UniProt Q9FLW9 64-579) SARVETEVIPVSPEDVPNREEQLERLLEMQQFGDTSVGMWSKPTVRRKTKIVCTVGPSTNTREMIWKLAEAGMNVARMNMSHGDHASHKKVIDLVKEYNAQTKDNTIAIMLDTKGPEVRSGDLPQPIMLDPGQEFTFTIERGVSTPSCVSVNYDDFVNDVEAGDMLLVDGGMMSFMVKSKTKDSVKCEVVDGGELKSRRHLNVRGKSATLPSITEKDWEDIKFGVENKVDFYAVSFVKDAQVVHELKKYLQNSGADIHVIVKIESADSIPNLHSIITASDGAMVARGDLGAELPIEEVPILQEEIINLCRSMGKAVIVATNMLESMIVHPTPTRAEVSDIAIAVREGADAVMLSGETAHGKFPLKAAGVMHTVALRTEATITSGEMPPNLGQAFKNHMSEMFAYHATMMSNTLGTSTVVFTRTGFMAILLSHYRPSGTIYAFTNEKKIQQRLALYQGVCPIYMEFTDDAEETFANALATLLKQGMVKKGEEIAIVQSGTQPIWRSQSTHNIQVRKV
binds | Starch synthase 3 (protein, UniProt F4IAG2 45-1042) QKKNGEKDSNATSTATNEVSGISKLPAAKVDVQKQSSVVLNERNVLDRSDIEDGSDRLDKKTTDDDDLLEQKLKLERENLRRKEIETLAAENLARGDRMFVYPVIVKPDEDIEVFLNRNLSTLNNEPDVLIMGAFNEWRWKSFTRRLEKTWIHEDWLSCLLHIPKEAYKMDFVFFNGQSVYDNNDSKDFCVEIKGGMDKVDFENFLLEEKLREQEKLAKEEAERERQKEEKRRIEAQKAAIEADRAQAKAETQKRRELLQPAIKKAVVSAENVWYIEPSDFKAEDTVKLYYNKRSGPLTNSKELWLHGGFNNWVDGLSIVVKLVNAELKDVDPKSGNWWFAEVVVPGGALVIDWVFADGPPKGAFLYDNNGYQDFHALVPQKLPEELYWLEEENMIFRKLQEDRRLKEEVMRAKMEKTARLKAETKERTLKKFLLSQKDVVYTEPLEIQAGNPVTVLYNPANTVLNGKPEVWFRGSFNRWTHRLGPLPPQKMEATDDESSHVKTTAKVPLDAYMMDFVFSEKEDGGIFDNKNGLDYHLPVVGGISKEPPLHIVHIAVEMAPIAKVGGLGDVVTSLSRAVQELNHNVDIVFPKYDCIKHNFVKDLQFNRSYHWGGTEIKVWHGKVEGLSVYFLDPQNGLFQRGCVYGCADDAGRFGFFCHAALEFLLQGGFHPDILHCHDWSSAPVSWLFKDHYTQYGLIKTRIVFTIHNLEFGANAIGKAMTFADKATTVSPTYAKEVAGNSVISAHLYKFHGIINGIDPDIWDPYNDNFIPVPYTSENVVEGKRAAKEELQNRLGLKSADFPVVGIITRLTHQKGIHLIKHAIWRTLERNGQVVLLGSAPDPRIQNDFVNLANQLHSSHGDRARLVLTYDEPLSHLIYAGADFILVPSIFEPCGLTQLIAMRYGAVPVVRKTGGLFDTVFDVDHDKERAQAQVLEPNGFSFDGADAPGVDYALNRAISAWYDGREWFNSLCKTVMEQDWSWNRPALEYLELYHSARK
binds | Red chlorophyll catabolite reductase (protein, UniProt Q8LDU4 40-319) SMEDHDDHLRRKFMEFPYVSPTRKQLMVDLMSTVENRLQSQLLPCNLPPDVRNFNNPNGSAEASLHIRSGDKSSPIDFVIGSWIHCKIPTGVSLNITSISGFLNSSTKAPNFVVELIQSSSKSLVLILDLPHRKDLVLNPDYLKEYYQDTALDSHRQSLLKLPEVNPYVSPSLFVRSAFSPTASMLKIDAEEEDKLEEILRDHVSPAAKEVLEVWLERCVKEEEEKIVVGEEERMELERRDKSFRRKSIEDDLDLQFPRMFGEEVSSRVVHAIKEAFGVL
binds | Plastidial pyruvate kinase 3 (protein, UniProt Q93Z53 56-571) SIKISEDSRKPKAYAENGAFDVGVLDSSSYRLADSRTSSNDSRRKTKIVCTIGPSSSSREMIWKLAEAGMNVARLNMSHGDHASHQITIDLVKEYNSLFVDKAIAIMLDTKGPEVRSGDVPQPIFLEEGQEFNFTIKRGVSLKDTVSVNYDDFVNDVEVGDILLVDGGMMSLAVKSKTSDLVKCVVIDGGELQSRRHLNVRGKSATLPSITDKDWEDIKFGVDNQVDFYAVSFVKDAKVVHELKNYLKTCSADISVIVKIESADSIKNLPSIISACDGAMVARGDLGAELPIEEVPLLQEEIIRRCRSIHKPVIVATNMLESMINHPTPTRAEVSDIAIAVREGADAIMLSGETAHGKFPLKAVNVMHTVALRTEASLPVRTSASRTTAYKGHMGQMFAFHASIMANTLSSPLIVFTRTGSMAVLLSHYRPSATIFAFTNQRRIMQRLALYQGVMPIYMEFSDDAEDTYARSLKLLQDENMLKEGQHVTLVQSGSQPIWREESTHLIQVRKIKIGG
binds | Bifunctional protein FolD 2 (protein, UniProt Q9LHH7 1-299) MASSSDHTAKIIDGKAIAHTIRSEIAEEVRGLSEKHGKVPGLAVVIVGSRKDSQTYVNTKRKACAEVGIKSFDVGLPEEVSEADLISKVHELNSNPDVHGILVQLPLPKHINEEHILGAISIDKDVDGFHPLNIGKLAMKGREPLFLPCTPKGCLELLARSGVKIKGQRAVVVGRSNIVGLPVSLLLLKADATVTTVHSHTKDPEAIIREADIVIAACGQAHMIKGNWIKPGAAVIDVGTNAVSDPSKKSGYRLVGDVDFAEASKVAGFITPVPGGVGPMTVAMLLRNTVDGAKRVFGE
binds | Stearoyl-[acyl-carrier-protein] 9-desaturase 5 (protein, UniProt Q9M879 30-396) VSMASTIRSATTEVTNGRKLYIPPREVHVQVKHSMPPQKLEIFKSLEGWADETLLTYLKPVEKSWQPTDFLPEPESEGFYDQVKELRERCKELPDDYFVVLVGDMITEEALPTYQTMLNTLDGVRDETGASPTPWAIWTRAWTAEENRHGDLLNKYLYLSGRVDMRQIEKTIQYLIGSGMDPKTENNPYLGFIYTSFQERATFISHGNTARLAKDRGDLKLAQICGTIAADERRHETAYTKIVEKLFEIDPDGTILGLADMMKKKISMPAHLMYDGQDDNLFEHFSTVAQRLGVYTAKDYADILEFLVERWNVETLTDLSSEGHRAQDFVCGLPARIRKIEERAQGRAKEAAKNIPFSWIFGRNIRA
binds | Ribose-P pyrophosphokinase 3 (protein, UniProt Q93Z66 40-411) TASVSNRCIKCGVRSLENHSGHRSLDFLSNGDPISLINPNSSSPITMAAATSESGSKSSKRVCLFHSDETRDLAERIVAKSDCIELRSINWKKFDDGFPNLFIQNAQGIRGQHVAFLASFSSPAVIFEQLSVIYALPKLFVSSFTLVLPFFPTGTSERMEDEGDVATAFTLARILSNIPTSRGGPTSLVTFDIHALQERFYFGDTILPCFESGIPLLKSRLQSLPDSDNISIAFPDDGAWKRFHKQLQHYPTIVCNKVRMGDKRIVRIKEGDAEGRHVVIVDDLVQSGGTLIECQKVLAAHGAAKISAYVTHGIFPRSSWKRFKLDTKGDPAEGLSYFWITDSCGMTVKEVMNKPPFEVLSLAGSIASALQV
